The full ranking holds about 33,000 sequences; the median of “E-score (-0.5 to 0.5)” is about -0.0034, and the highest 2% start at about 0.25. The list shows a part of the results.
target: T1, Yap3 (UniProt P38749); test: PBM E-score (8-mer binding enrichment) (E-score (-0.5 to 0.5)); higher = stronger / more preferred TF binding; details: protein concentration: 100 nM; construct: GST-full length
T1 sequence: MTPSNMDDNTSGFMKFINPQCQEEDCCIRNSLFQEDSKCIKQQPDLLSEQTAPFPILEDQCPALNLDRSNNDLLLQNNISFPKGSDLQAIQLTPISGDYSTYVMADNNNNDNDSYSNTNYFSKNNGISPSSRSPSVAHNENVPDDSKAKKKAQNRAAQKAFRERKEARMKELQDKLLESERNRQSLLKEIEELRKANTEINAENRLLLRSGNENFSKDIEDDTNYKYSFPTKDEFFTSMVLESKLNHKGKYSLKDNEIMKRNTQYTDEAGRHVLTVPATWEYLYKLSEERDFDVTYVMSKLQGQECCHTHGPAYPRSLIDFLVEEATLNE
Procedure, shortened: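 The E-score, a modified Wilcoxon-Mann-Whitney statistic, was computed by the Universal PBM Analysis Suite for every ungapped eight-base word pooled with its reverse complement. Scans behind it were normalised with masliner after bound GST-tagged yeast transcription factors were detected with fluorescent anti-GST. The proteins, at about 100-200 nM, had been applied to universal all-10-mer Agilent arrays made double-stranded by primer extension.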

Sequence | PBM E-score
ACGGACCA | 0.0968
ACATAGAG | -0.00586
CAGGAAGA | -0.0485
ACGTCTGA | 0.00171
TGGATTAA | 0.0534
GTGCTAAC | -0.0491
AATTTACC | 0.145
CTCCCGTA | -0.0808
AGCCGAAA | -0.0259
GGCTTGCA | -0.00273
CGCTGACA | 0.143
AACGGTAA | 0.192
ACTCCCGA | -0.0714
GTAGGGTA | 0.0833
GCTACTGA | -0.0544
CAGTGACC | -0.215
CCTGCAAA | -0.215
GAAAGAAA | 0.245
CTAGTCAC | 0.0325
CCGGGCTA | -0.336
TACAAGAA | 0.223
GTAAGCAC | -0.00674
AGCAACAC | 0.165
GGTCCACC | -0.329
AGTCTACG | -0.234

Sequence | PBM E-score
CAGGGTAG | -0.0458
AGCTATCA | 0.0643
GTCCAGAC | -0.241
ACACGCGC | -0.00267
CTAAGGCA | -0.201
AATCGTAG | 0.0131
CGTCCCAC | -0.0535
ATGCACCG | -0.17
AAAGAATT | 0.132
CCGCACAA | 0.0211
GAGTTGCA | -0.0745
CTCGAATA | -0.17
ATACGTGC | -0.0225
AACTACCC | -0.00275
GTTGACAA | 0.211
CACAGGTG | -0.0921
CTGCCCAA | -0.122
AGATTTAA | -0.00108
AAGGTAGA | -0.0248
GTGGCTCA | -0.158
CAACCATG | 0.104
AGCTTGAG | -0.182
CCGCGGCA | 0.135
AAAATCTG | 0.0665
TAGTAGCA | 0.0781

Sequence | PBM E-score
CGCTTCCC | -0.0785
ATCTGTGA | -0.00482
CGTATGAG | -0.0088
AAAGCACC | -0.0505
ATCTCCAG | -0.0176
GATGGGCA | 0.0495
GGTTCCTA | 0.049
ACAAGAGG | -0.0667
CAAGTCAA | -0.0315
ACAGTCCA | -0.0527
TAATGCTA | 0.203
AGGTTAAG | -0.0592
CGCCCCGA | -0.134
CCTGAAGG | -0.16
GCACAAAC | 0.0654
CCCCAACA | -0.111
GATGGGAA | -0.111
CATCGATC | 0.0575
CAGACGCA | -0.0728
CGGCCTAA | -0.0291
CGGTAACG | -0.146
GGCGAGCC | -0.0901
CTAGCGAA | -0.254
AGATGAAA | 0.179
ATCGATGA | 0.0972

A few values from the results shown:
AGATGAAA – PBM E-score: 0.179
GGCGAGCC – PBM E-score: -0.0901
CATCGATC – PBM E-score: 0.0575
ACAGTCCA – PBM E-score: -0.0527
CCCCAACA – PBM E-score: -0.111
ATCTGTGA – PBM E-score: -0.00482
CTAGCGAA – PBM E-score: -0.254

Next part

Sequence | PBM E-score
CCTCTCCC | -0.147
AGTTCCAG | -0.123
AGAGTTCG | 0.0811
GTGACGTA | 0.227
CGTAAGGA | 0.0166
CAGGCCTA | 0.0511
CCTCAGAA | -0.0691
CACTGATA | -0.0531
CCAGTCGC | -0.171
ACCTACGA | -0.0771
AGTGCCGC | -0.0573
CATATGTC | -0.0235
ATACCACC | 0.086
CATGCTAG | 0.0514
ATAAGATG | 0.176
AATTCAAG | 0.0689
ACTTGGGA | -0.165
GCTCAAAA | 0.0358
CTCTATCC | -0.00886
GGTTCTAC | -0.134
CTTGCTCC | -0.0937
GTCGACTA | 0.174
ATCGGGCA | -0.0101
TCAAACCA | 0.165
CACTCTAC | 0.113

Sequence | PBM E-score
ACCAGCAG | -0.186
CGGTGGTC | -0.194
AGCCAGGA | -0.0633
ACATTCAT | 0.13
GTATTAGA | 0.217
GCGGAGCC | -0.178
GGCTCACC | -0.288
TGCAACAA | 0.0351
AACGGGGC | -0.0379
CTCAAGTC | -0.0358
CCCTTATA | 0.17
AAGGAAAG | 0.0223
AAGGTGCA | -0.0513
CGTAGTCC | -0.184
AACGTCAA | 0.0188
CTTGTGAA | 0.0996
AAACGCCA | 0.107
AATATGGT | 0.226
ATAGGACC | -0.0967
GGCATGCC | 0.00174
CTCATGCA | 0.0601
TTATTAAA | 0.34
CTGATAGA | -0.00922
CATGCTGC | -0.042
ATTTTCTC | 0.0752

Sequence | PBM E-score
AGTAGCCA | -0.141
AGATTCGA | -0.0893
AAAGACCT | 0.0294
GATTGATA | 0.22
GACGGGTA | -0.183
CATAGGGC | -0.204
ACAGGCAA | 0.153
GTGAAGCA | -0.0143
GCCAAAGA | 0.0383
ATATGATC | 0.294
AGAGCGGC | -0.0586
ATTGCCAA | -0.00347
AATGTGGA | 0.031
CATTCAGG | -0.0924
CAAGAGCG | -0.0057
ACCGATGC | -0.0869
GTAGACAC | 0.021
CGGTGTGA | 0.115
GAATGCGC | 0.124
ATGACTAA | 0.431
CCTGGGGA | -0.423
ACAGGGAT | -0.0719
ATCGAAGC | -0.0904
CATGCGAG | -0.0122
AAGAAAGG | -0.0192

Sequence | PBM E-score
AGCTTCAG | -0.234
AGAAAATG | 0.0715
GCTGAGCC | -0.154
CGTCGTTC | 0.209
CAGGGACC | -0.266
ACCAACCA | 0.00621
CAGGTAAA | 0.242
GGTTGACA | -0.0206
ACATAACT | 0.192
CACACCGA | 0.0421
ACTCGGCG | -0.0597
CTTGCTAA | -0.194
CGTTTACA | 0.0626
CCATCTAG | -0.112
GCTGCTAC | -0.191
GATACTGA | 0.0116
GGGCCGAC | -0.119
CCCATTAC | 0.0821
CCACCAAA | 0.00978
ACCGTATG | -0.0219
ACCAAGAT | -0.00908
AGTGAAGG | 0.0123
CCTGGGTA | -0.172
CATGAGAA | 0.0305
CTTCCGTC | -0.101

Sequence | PBM E-score
AGCCCCAT | -0.171
CCATGGGA | -0.00213
CCGGGGCA | -0.245
AAAACCCT | 0.0535
CCATTCAC | -0.0318
CGGCGTGC | -0.259
AACTCATC | 0.0719
GGGCTAAC | -0.234
CCGAAACC | -0.155
ACTCCATG | -0.184
CACGCTAG | 0.0997
GTAATCCA | 0.236
AACGGAAG | 0.2
CCGTTCAA | 0.0445
AGAATCAA | 0.0192
AACACTGA | 0.245
CTATTGCC | -0.0289
GCAGAGCC | -0.261
ACGTGGAA | 0.0425
AGGGAGAC | -0.229
CCTCTGGC | -0.019
TTCGAAAA | 0.189
TAGCAGAA | 0.122
ATTTAGCA | 0.111
AGGATGAG | 0.0242

Sequence | PBM E-score
CGCGAATC | 0.0799
ACCAAGAA | 0.135
ATACTCCC | -0.108
AAGTAGTA | 0.0994
CTTGGCCC | -0.255
GGATCCCC | -0.271
CATCTGCA | 0.101
GTGCTACA | -0.0146
GTTGCCCA | 0.0716
AGCTTGTG | 0.0192
AAATACAA | 0.197
CGGGGGTC | -0.482
AAGTATCC | -0.00257
AACTGTAG | 0.116
CGGACACG | -0.068
CCGGCTCG | -0.157
CGACGAGA | -0.00791
GGGAACCC | -0.179
CATGAAAA | 0.177

Another view of part of the listing above:
Sequence	PBM E-score
AAGGAAAG	0.0223
AAGGTGCA	-0.0513

— the supplement of paper PMC3334620
